# In patent US20030096288A1 (Human Genome Sciences, published 2003):
# By UniProt entry, the sequences of proteins in these tests, tags left out. Where a name states a change or a piece, a line headed by the entry shows the natural chain unless it says otherwise.
# UniProt Q13546: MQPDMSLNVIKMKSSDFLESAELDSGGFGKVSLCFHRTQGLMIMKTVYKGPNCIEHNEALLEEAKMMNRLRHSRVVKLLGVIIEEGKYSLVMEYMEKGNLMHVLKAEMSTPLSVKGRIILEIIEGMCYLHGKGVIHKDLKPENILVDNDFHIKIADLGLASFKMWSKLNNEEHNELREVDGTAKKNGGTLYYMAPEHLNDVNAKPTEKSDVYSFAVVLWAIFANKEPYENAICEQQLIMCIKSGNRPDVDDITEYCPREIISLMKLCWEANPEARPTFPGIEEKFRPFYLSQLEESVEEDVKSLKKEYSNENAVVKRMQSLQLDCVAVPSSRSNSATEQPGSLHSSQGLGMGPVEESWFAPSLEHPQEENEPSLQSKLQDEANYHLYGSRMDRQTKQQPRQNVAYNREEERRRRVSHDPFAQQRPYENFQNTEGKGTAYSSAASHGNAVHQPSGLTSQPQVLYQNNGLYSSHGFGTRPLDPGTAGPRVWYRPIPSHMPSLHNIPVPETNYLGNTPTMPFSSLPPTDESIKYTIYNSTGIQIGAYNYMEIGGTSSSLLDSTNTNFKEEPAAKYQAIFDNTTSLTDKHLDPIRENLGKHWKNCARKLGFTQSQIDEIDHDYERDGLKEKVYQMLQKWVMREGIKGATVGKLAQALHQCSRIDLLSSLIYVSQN
# UniProt P78560: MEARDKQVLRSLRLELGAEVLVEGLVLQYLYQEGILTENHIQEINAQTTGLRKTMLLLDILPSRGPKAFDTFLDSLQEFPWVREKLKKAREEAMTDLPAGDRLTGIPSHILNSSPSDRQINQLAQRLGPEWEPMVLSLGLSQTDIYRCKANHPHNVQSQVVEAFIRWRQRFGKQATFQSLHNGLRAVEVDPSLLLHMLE
# Results are given in words; binding and its absence hold for the method and conditions named. In cells and extracts the contact can be indirect. Some results given as binding are weak or reduced against the parent protein; the word gives no strength. For some assays here: Where a sequence is shown, tags or fusion partners need not be part of it.
# How the values were obtained:
# Myc-RIP (human) = Myc-RIP (human) (UniProt Q13546); experiment: co-immunoprecipitation from transfected 293 cells, anti-FLAG, anti-myc immunoblot
# FLAG-CED-3 (C. elegans) = molecular target: T1, FLAG-CED-3 (C. elegans) (UniProt P42573); experiment: co-immunoprecipitation from cotransfected 293 cells, anti-FLAG
# T1 sequence (looked up): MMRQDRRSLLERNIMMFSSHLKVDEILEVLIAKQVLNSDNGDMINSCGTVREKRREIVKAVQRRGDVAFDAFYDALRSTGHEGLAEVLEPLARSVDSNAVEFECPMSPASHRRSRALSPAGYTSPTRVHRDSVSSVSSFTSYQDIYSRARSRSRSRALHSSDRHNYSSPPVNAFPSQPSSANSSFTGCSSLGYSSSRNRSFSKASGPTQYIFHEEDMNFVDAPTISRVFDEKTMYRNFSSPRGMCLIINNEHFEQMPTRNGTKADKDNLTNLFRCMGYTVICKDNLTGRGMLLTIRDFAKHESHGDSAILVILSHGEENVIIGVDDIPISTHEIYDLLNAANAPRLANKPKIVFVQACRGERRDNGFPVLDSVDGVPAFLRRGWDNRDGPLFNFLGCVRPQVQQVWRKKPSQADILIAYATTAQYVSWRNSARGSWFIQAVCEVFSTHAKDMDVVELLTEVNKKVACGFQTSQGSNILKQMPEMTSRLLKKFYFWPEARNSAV
binding (FLAG-CED-3 (C. elegans)),Substance,binding (Myc-RIP (human))
–,FLAG-RAIDD (from UniProt P78560 1-199),binds
binds,AU1-RAIDD (from UniProt P78560 1-199),–
